Laboratory results as given in patent publication US5739274A, “Active component of parathyroid hypertensive factor” (CV Technologies, Inc., priority 1995, dated 1998).
Values joined by “and” are separate entries in the source; they are usually repeats but may differ in a detail not shown here. Equal entries are not always repeated. Not every detail of the peptide structures is certain; ends, links or a residue may be inferred. Ends that are not written are not given here.

Tests used:
SD rats = experiment: Blood pressure bioassay, bolus injection into anesthetized normotensive SD rats; format: in vivo, rat; conditions: Table 1; reaction samples incubated 37° C. 1 hour, heated 95° C. 5 min
Experimental: SD rats were anesthetized using Na pentobarbital, (50 mg/kg, i.p.) and catheters were inserted in the jugular vein for injection of plasma and drugs and in the carotid artery for measurement of b.p.
The chloroform methanol extract of SHR plasma was redissolved in saline and administered by bolus injection.

normotensive (SD) rats = experiment: Bioassay for PHF blocking activity: antagonism of blood pressure elevation induced by DF SHR plasma; format: in vivo, rat; conditions: Table 2; about 150 microliters reaction mixture injected immediately prior to 1.5 ml DF SHR plasma; monitored 90 minutes

Substance | BP (bioassay for PHF-like activity, agonist) (SD rats) | BP (bioassay for PHF blocking activity, antagonist) (normotensive (SD) rats)
YSVKHFR [compound 24] | -7.0 ± 7.0 | 5.8
YSVLHFR [compound 26] | 5.7 and 6.0 ± 3.2 | 6.2
YSVYHFR [compound 25] | 5.4 ± 4.3 | 3.7
GLNRKYLV [compound 27] | 0.5 ± 2.5 | 5.4
